Literature values, collected in patent publication US20180328914A1, “Methods for Quantitative Analysis and Targeting of Inflammatory Breast Cancer Tumor Emboli” (priority 2017, published 2018).
For at least one compound, name, drawing or mass did not settle the structure.

Tested on: NFκB activation
Details: IBC models, reported by Allensworth, 2015

In the case of CCN(CC)C(=S)SSC(=S)N(CC)CC [DSF, Disulfiram], the NFκB activation is given as “suppressing NFκB activation”.
